A short description of the assay: IkB Signaling. The following applies: ABC-DLBCL IkBa-CBG/CBR dual luciferase ratio (green luciferase fused to IkBa over red control in OCI-Ly3 lymphoma cells), 4 h. The essentials: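 Curves were fitted separately to fusion (green), unfused (red) and ratio luminescence, then classed by r2, magnitude and activity. Cells: OCI-Ly3, 4 h compound plus doxycycline at 37C; 10 uM MG-132 defined full response.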
Setting [1] is: measured here: control luc red channel unless noted.
[2] abbreviates: measured here: IkB-luc green channel.
Where [3] appears, read: measured here: control luc red channel.

Among the data in PubChem BioAssay AID445 (National Center for Advancing Translational Sciences (NCATS), 2006) are AC50 values, retold here.

Some of the results follow. These are further read-outs of the screen, such as a control signal, another cell line or another target. No call is given for them. Compounds called inactive in the main read-out are mostly missing here. Words in brackets tell the shape of the fitted curve; partial curves, single points and poor fits give uncertain potencies.

A word on the AC50: it is the concentration giving half of the maximal activity seen. `COc1ccc(Nc2ncc3c(n2)CCN(C(=O)OC(C)(C)C)C3)cc1`: the AC50 under setting [1] was 12.6 µM [falling, single point].
On the same count and under the same terms, the same measure for `CCOC(=O)CC(=O)CSc1nnc2c(n1)[nH]c1ccccc12`: 20 µM [falling, single point].
Same read-out and setting: with `CCOc1ccccc1C(=O)N(Cc1cccs1)c1ccc(Cl)cc1` the figure was 25.1 µM [falling, partial curve]; with `O=C(Nc1ccccc1)c1cn(-c2ccccc2)nc1-c1ccccc1`, 20 µM [falling, single point]; with `Cc1ccc(-c2nc3cc(C)ccc3o2)cc1`, 3.16 µM [falling, partial curve].
In the case of `COc1cccc(N2CCN(S(=O)(=O)c3ccc4nc(-c5ccccc5)[nH]c4c3)CC2)c1`, under setting [1], the concentration at half-maximal activity (AC50) is 5.01 µM [falling, partial curve].
Still for that read-out and setting: the same measure for `Cc1ccc(NC(=O)Cn2c(-c3cncs3)nc3ccccc32)cc1Br`: 1.26 µM [falling, full curve].
In the case of `COc1cc2c(C(=O)N(C)c3cc(Cl)ccc3OC)cn(CC(C)C)c(=O)c2cc1OC`, under setting [1], the AC50 is 20 µM [falling, partial curve].
For `Cc1nn(CCCC(=O)Nc2cccc(F)c2)c(=O)c2c1sc1ccccc12`, the AC50 under setting [1] was 7.94 µM [falling, partial curve].
The same measure, in the same setting: the same measure for `O=C(Nc1ccc2c(c1)OCO2)c1c(F)c(F)c(F)c(F)c1F`: 3.98 µM [falling, partial curve]; for `COC(=O)c1ccc(NC(=O)Nc2ccc(F)cc2)cc1`: 39.8 µM [falling, single point]; for `Cc1ccc(NC(=O)Cn2c(=O)c(CNc3ccccc3)cc3cc4c(cc32)OCCO4)cc1`: 7.94 µM [falling, partial curve].
With `CCN(CC)C(=O)C1=C(C)Nc2nc3ccccc3n2C1c1cccc(Cl)c1` (centres undefined), the AC50 under setting [1] is 12.6 µM [falling, partial curve].
In the case of `COc1cc(CNc2ccc3[nH]c(=O)[nH]c3c2)cc(Cl)c1OCc1ccccc1F`, under setting [1], the AC50 was 0.1 µM [falling, full curve].
As for `Cc1ccc(CNC(=O)c2ccc3c(c2)N(Cc2cccc(C)c2)C(=O)CS3)cc1`, the AC50 under setting [1] was 6.31 µM [falling, full curve].
On to `Cc1ccc(-c2nn(CC(=O)Nc3cccc(C(F)(F)F)c3)c(=O)c3ccccc23)cc1`, for which, under setting [1], the AC50 is 3.98 µM [falling, full curve].
The same measure, in the same setting: the same measure for `Cc1cccc(C)c1NC(=O)CSCc1cnn(-c2ccccc2)c1-n1cccc1`: 25.1 µM [falling, single point]; for `Cc1c(C(=O)N2CCN(c3ccccn3)CC2)oc2ccccc12`: 31.6 µM [rising, partial curve] [measured here: IkB-luc green channel].
For the molecule `COc1ccccc1-c1cc(C(=O)Nc2ccccc2SC)no1`, the AC50 under setting [1] was 0.000158 µM [falling, full curve, poor fit].
In the case of `O=C(Nc1scc(-c2ccccc2)c1C(=O)O)c1ccco1`, the AC50 by setting is: under setting [2], 0.00631 µM [rising, full curve]; under setting [3], 7.94 µM [falling, partial curve].
Turning to `CCOc1ccc(C2=CC(c3cc(Br)ccc3F)n3ncnc3N2)cc1Cl` (centres undefined), under setting [1], the AC50 is 39.8 µM [falling, single point].
Turning to `CCOc1ccc(S(=O)(=O)N(C(=O)c2ccncc2)c2ccc3oc(C)c(C(=O)OC)c3c2)cc1`, under setting [1], the AC50 was 5.01 µM [falling, partial curve].
With `Cc1nn(CC(=O)Nc2cccc(C(F)(F)F)c2)c(=O)c2nn(-c3ccccc3)c(C)c12`, the half-maximal activity concentration (AC50) under setting [1] is 12.6 µM [falling, single point].
Same read-out and setting: the same measure for `CCOC(=O)c1c(NC(=O)Cn2nnc3ccccc32)sc2c1CCC(C)C2` (centres undefined): 7.94 µM [falling, partial curve]; for `CN(C(=O)CSc1nc2ccccc2n1Cc1cccc(C(F)(F)F)c1)c1ccccc1`: 25.1 µM [falling, partial curve]; for `O=C(COC(=O)c1cc(-c2ccccc2)nc2c(Cl)cccc12)c1ccc(F)cc1`: 2.51 µM [falling, full curve, poor fit].
`COc1cccc(CNC(=O)c2nn(C)c3c2CS(=O)(=O)c2ccccc2-3)c1`: the half-maximal activity concentration (AC50) under setting [1] was 39.8 µM [falling, single point].
Still for that read-out and setting: the same measure for `COc1ccc(NC(=O)CSC2=Nc3ccccc3C3=NC(CCC(=O)NCCc4ccccc4)C(=O)N23)c(OC)c1` (centres undefined): 10 µM [falling, partial curve]; for `COc1ccc(CNC(=O)c2cc(C)nc3c2c(C)nn3-c2cccc(Cl)c2C)cc1`: 2 µM [falling, partial curve].
Take `CC(C)CN(CCCNC(=O)c1cn(C)c2ccc(S(=O)(=O)N(C)C3CCCCC3)cc2c1=O)CC(C)C`: under setting [1], the AC50 is 0.0631 µM [falling, full curve, poor fit].
With `COc1cccc(NC(=O)C(CCSC)NC(=O)C2CCC(C)CC2)c1` (centres undefined), the half-maximal activity concentration (AC50) under setting [1] is 2.51 µM [falling, full curve].
The same measure, in the same setting: with `COc1ccc(CCNC(=O)CCn2c(=O)c3cccn3c3cccnc32)c(OC)c1OC` the figure was 0.00251 µM [rising, full curve]; with `Cc1cccc(NC(=O)N2CCC(n3c(C)nc4cccnc43)CC2)c1`, 3.16 µM [rising, partial curve].
Consider `O=C(CSc1nccn1Cc1ccccc1)Nc1ccc2c(c1)OCO2`, for which the concentration at half-maximal activity (AC50) under setting [1] is 6.31 µM [rising, single point].
With `CC1CCN(c2nc3c(c(=O)n(C)c(=O)n3C)n2Cc2ccccc2)CC1`, the AC50 under setting [1] was 25.1 µM [falling, single point].
`CCC(C)(C)NC(=O)Cn1c(=O)ccc2cc(S(=O)(=O)N3CCC(C)CC3)ccc21`: under setting [1], the half-maximal activity concentration (AC50) is 0.631 µM [rising, full curve].
As to `CCOC(=O)N1CCC(NC(=O)c2ccc3c(c2)N(Cc2cc(C)ccc2C)C(=O)c2ccccc2S3=O)CC1` (centres undefined), under setting [1], the AC50 was 15.8 µM [falling, partial curve].
Same read-out and setting: the same measure for `CCOc1cc(C(=O)NCCc2csc(-c3ccc(C)cc3)n2)cc(OCC)c1OCC`: 39.8 µM [falling, single point]; for `CN(C(=O)c1cc2c(=O)n3ccccc3nc2n1C)c1ccccc1`: 20 µM [falling, single point]; for `CCOC(=O)c1cnc2c(-c3ccccc3)cnn2c1N`: 0.398 µM [falling, full curve, poor fit].
The same measure, in the same setting: the same measure for `Cc1ccc(Cl)cc1N1CCN(C(=O)C2CCN(S(=O)(=O)c3ccc4c(c3)oc(=O)n4C)CC2)CC1`: 6.31 µM [falling, partial curve]; for `Cc1cc(C)c2c(n1)nn1c(C)c(CCC(=O)NCc3ccc(Cl)cc3)c(C)nc21`: 31.6 µM [falling, single point].
For the molecule `c1ccc(-c2ccc(-c3nc(-c4ccccn4)no3)cc2)cc1`, under setting [1], the AC50 is 10 µM [falling, partial curve].
The same measure, in the same setting: with `Cc1ccc(OCc2nc(-c3ccc(C(=O)N4CCN(c5ccccc5)CC4)cc3)oc2C)cc1` the figure was 3.98 µM [falling, full curve, poor fit]; with `O=C(NCc1ccccc1Cl)c1ccc(Nc2nc3ccccc3n3nnnc23)cc1`, 1.26 µM [falling, full curve]; with `CCc1ccc(C2c3c(-c4cc(C)ccc4O)n[nH]c3C(=O)N2Cc2cccnc2)cc1` (centres undefined), 15.8 µM [falling, partial curve].
Still for that read-out and setting: the same measure for `Cn1cc(CCCC(=O)NCc2ccccc2Cl)c2ccccc21`: 0.0794 µM [falling, full curve, poor fit]; for `CCOc1ccc(OCC)c(Nc2cc(C)nc3nc(-c4ccco4)nn23)c1`: 3.98 µM [falling, partial curve].
Still for that read-out and setting: the same measure for `CNC(=O)c1[nH]cnc1C(=O)Nc1cccc(OC)c1`: 10 µM [falling, partial curve].
Regarding `O=C(c1ccc([N+](=O)[O-])cc1)N1CCN(c2ccc(Nc3ccccc3)nn2)CC1`, the half-maximal activity concentration (AC50) under setting [1] is 15.8 µM [falling, partial curve].
As for `Cn1cc(C(=O)c2ccc(F)cc2)cc1-c1nc2ccccc2n1C`, the AC50 reads like this: under setting [2], 12.6 µM [falling, partial curve]; under setting [3], 10 µM [falling, partial curve].
`COc1cccc2c1Oc1ncccc1N(C(=O)Nc1cccc(Cl)c1)C2`: the AC50 under setting [1] was 25.1 µM [falling, partial curve].
In the case of `COc1ccc(N(C)S(=O)(=O)c2cccc3cccnc23)c(OC)c1`, under setting [1], the concentration at half-maximal activity (AC50) was 25.1 µM [falling, partial curve].
The same measure, in the same setting: with `Cn1nc(-c2ccc(C(=O)Nc3cccc(C(F)(F)F)c3)cc2)c2ccccc2c1=O` the figure was 25.1 µM [falling, partial curve].
On the same count and under the same terms, with `CCn1c(=O)n(CC)c2cc(S(=O)(=O)N3CCc4ccccc43)ccc21` the figure was 15.8 µM [falling, partial curve]; with `CCOc1ccc(NS(=O)(=O)c2ccc3[nH]cc(C(=O)NCc4ccccc4)c(=O)c3c2)cc1`, 3.16 µM [falling, full curve].
For the molecule `Cc1cccc(CNC(=O)c2ccc3c(c2)N(C)C(=O)C2CCCCN32)c1` (centres undefined), the AC50 under setting [1] is 7.94 µM [falling, full curve].
`COc1cccc(NC(=O)CN2C(=O)C3(OCCCO3)c3ccccc32)c1`: the AC50 under setting [1] was 12.6 µM [falling, partial curve].
Same read-out and setting: with `COc1ccc(Cn2ccc3nc(C)c(C(=O)Nc4ccc(OC(F)(F)F)cc4)cc3c2=O)cc1` the figure was 1.58 µM [falling, full curve, poor fit]; with `CCCCC(=O)OC1=C(C(=O)c2ccccc2)N(CC)S(=O)(=O)c2ccccc21`, 12.6 µM [falling, partial curve].
The same measure, in the same setting: with `O=C(Nc1cccc(-c2nc3ccccc3o2)c1)c1cccc(Br)c1` the figure was 0.0794 µM [falling, full curve]; with `C=CCN1C(c2ccc(OCC)cc2)=CS/C1=C(\C#N)c1nnc2n1CCCCC2`, 25.1 µM [falling, partial curve].
